T/C and survivor count data for ten compounds are collected here from PubChem BioAssay AID330 (DTP/NCI, 2004).

In the assay the test system is P388 leukemia ip, CD2F1 mice, survival T/C. In words: NCI In Vivo Anticancer Drug Screen. Data for tumor model P388 Leukemia (intraperitoneal) in CD2F1 (CDF1) mice. The following applies: T/C endpoint: median survival time, higher T/C = longer survival.
Setting [1] is: dose: 50.0 mg/kg/injection, schedule: Q01DX009 (ip), vehicle: saline with Tween-80.
Where [2] appears, read: dose: 100.0 mg/kg/injection, schedule: Q01DX009 (ip), vehicle: saline with Tween-80.
Where [3] appears, read: dose: 200.0 mg/kg/injection, schedule: Q01DX009 (ip), vehicle: saline with Tween-80.

The list is a part of this screen's results and no random one: it gathers tests that were run many times, whatever their T/C, doses with no T/C, and many T/C values between a quarter and a half above the control. Other doses and runs of a compound stand elsewhere. T/C gives the treated animals as a percentage of the vehicle group. Some entries give survivors of the animals treated and no T/C: the source files T/C as zero there, which appears to mark a toxic dose or a test without result, not a measured value. Some survivor counts are full or nearly so, which does not show that the dose was tolerated: survival well below the control is almost never listed, so the zero probably covers shortened survival too. Survivors were counted at the toxicity check, usually on the fifth day, unless a day is given; later deaths do not show. Schedules are NCI's codes, read here as Q, the interval in days (D) or hours (H), X, the number of doses. Some doses were run more than once; the results are listed from low to high. For survival time, this PubChem deposit counts one and a half times the control or more as active, and values a quarter to a half above the control carry no call in these data; other NCI protocols may use other cut-offs.

Regarding `C[n+]1ccc(Nc2ccc(NC(=O)c3ccc(Nc4cc[n+](C)c5ccc(N)cc45)cc3N)cc2)cc1`, the T/C reads like this: (dose: 0.4 mg/kg/injection, schedule: Q01DX009 (ip), vehicle: saline with Tween-80) 135 % of control; (dose: 0.44 mg/kg/injection, schedule: Q01DX009 (ip), vehicle: saline with Tween-80) 130 % of control; (dose: 0.6 mg/kg/injection, schedule: Q01DX009 (ip), vehicle: saline with Tween-80) 136 % of control; (dose: 0.66 mg/kg/injection, schedule: Q01DX009 (ip), vehicle: saline with Tween-80) 127 % of control; (dose: 2.2 mg/kg/injection, schedule: Q04DX003 (ip), vehicle: saline with Tween-80) 136 % of control; (dose: 3.3 mg/kg/injection, schedule: Q04DX003 (ip), vehicle: saline with Tween-80) 145 % of control.
For the compound `Cn1c([N+](=O)[O-])cnc1/C=C1\CCc2cc(OCCN3CCCC3)ccc2C1=O`, the survivor count is 1 of 6 and 2 of 6 under setting [1]; 0 of 6 under setting [2]; 0 of 6 under setting [3].
Turning to `ClC(Cl)(Cl)SSC(=Nc1ccccc1)SSC(Cl)(Cl)Cl`, the T/C under setting [1] is 131 % of control and the T/C under setting [2] is 133 % of control.
For `Cc1cc(Br)c2nsnc2c1[N+](=O)[O-]`, the T/C by setting is: (dose: 100.0 mg/kg/injection, schedule: Q01DX005 (ip), vehicle: saline with Tween-80) 125 % of control; (dose: 200.0 mg/kg/injection, schedule: Q01DX005 (ip), vehicle: saline with Tween-80) 125 % of control.
With `CC1(NC(=O)N(CCCl)N=O)CCCC1`, where the note is “dose: 25.0 mg/kg/injection, schedule: Q04DX003 (ip), vehicle: saline with Tween-80”, the survivor count is recorded as 6 of 6.
Consider `O=C(O)Cn1nnc2ccccc21`, for which, under “dose: 400.0 mg/kg/injection, schedule: Q01DX009 (ip), vehicle: saline”, the survivor count is 6 of 6.
With `Cc1ccc(S(=O)(=O)N=S(C)(=O)CCCl)cc1` (stereo not drawn), the survivor count is 1 of 6 (dose: 200.0 mg/kg/injection, schedule: Q04DX003 (ip), vehicle: suspension in saline) and 0 of 6 (dose: 400.0 mg/kg/injection, schedule: Q04DX003 (ip), vehicle: suspension in saline).
On to `Nc1ccc2ncccc2c1[N+](=O)[O-]`, for which the survivor count (dose: 400.0 mg/kg/injection, schedule: Q04DX003 (ip), vehicle: saline with Tween-80) is 1 of 6.
In the case of `CN(CO)c1nc(N(C)CO)nc(N(C)CO)n1`, the T/C was 125 % of control (dose: 25.0 mg/kg/injection, schedule: Q01DX009 (ip), vehicle: saline); 139 % of control under setting [1]; 148 % of control (dose: 50.0 mg/kg/injection, schedule: Q01DX009 (ip), vehicle: saline); 132 % of control (dose: 100.0 mg/kg/injection, schedule: Q01DX009 (ip), vehicle: saline). Also, the survivor count under setting [3] was 2 of 5; the survivor count (dose: 200.0 mg/kg/injection, schedule: Q01DX009 (ip), vehicle: saline) is 2 of 6 and 5 of 6.
Regarding `CC1CC2OC(=O)C(CN3CC3)C2CC2(C)C(O)CC(O)C12` (stereo not drawn), the T/C (dose: 100.0 mg/kg/injection, schedule: Q04DX002 (ip), vehicle: saline) is 128 % of control. Besides, the survivor count is recorded as 0 of 6 (dose: 200.0 mg/kg/injection, schedule: Q04DX002 (ip), vehicle: saline with Tween-80); 0 of 6 (dose: 200.0 mg/kg/injection, schedule: Q04DX002 (ip), vehicle: saline); 0 of 6 (dose: 400.0 mg/kg/injection, schedule: Q04DX002 (ip), vehicle: saline).
